Test results: paper PMC3827131

Protein sequences, listed by entry. Tags and fused reporters are not part of them. Lines headed by an entry give the natural chain unless they say otherwise; changes in a name come on top.
UniProt A1L2K5: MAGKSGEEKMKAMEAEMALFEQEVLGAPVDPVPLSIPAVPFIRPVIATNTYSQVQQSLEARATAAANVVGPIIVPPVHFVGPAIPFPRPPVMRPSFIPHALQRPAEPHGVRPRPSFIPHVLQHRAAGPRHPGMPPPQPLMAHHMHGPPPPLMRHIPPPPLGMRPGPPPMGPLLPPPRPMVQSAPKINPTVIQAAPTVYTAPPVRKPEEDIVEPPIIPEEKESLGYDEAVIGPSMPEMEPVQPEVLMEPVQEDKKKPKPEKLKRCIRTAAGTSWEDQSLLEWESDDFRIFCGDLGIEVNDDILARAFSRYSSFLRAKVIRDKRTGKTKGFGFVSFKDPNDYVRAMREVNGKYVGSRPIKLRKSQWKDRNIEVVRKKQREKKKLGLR

T1: VN-Rbm24b / VC-Rbm24b (BiFC fusion of Rbm24b) (Xenopus laevis) (UniProt Q9I8B3)
T1 sequence: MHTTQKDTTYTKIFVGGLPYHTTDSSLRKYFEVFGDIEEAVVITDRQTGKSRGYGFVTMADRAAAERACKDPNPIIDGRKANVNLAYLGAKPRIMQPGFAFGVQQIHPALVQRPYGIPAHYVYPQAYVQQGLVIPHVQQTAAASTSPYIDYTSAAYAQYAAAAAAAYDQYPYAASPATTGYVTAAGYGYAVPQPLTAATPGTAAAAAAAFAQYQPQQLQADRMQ

B1: VN-Rbm24b / VC-Rbm24b (BiFC fusion of Rbm24b) (protein, UniProt Q9I8B3 1-224)
chain: T1 sequence

What was measured:
Assay in all cases: split reporter; BiFC with Venus fragments VN and VC fused to the N-terminus of the ORFs; mRNAs injected into stage VI Xenopus oocytes, 48 h in OCM; confocal microscopy of the vegetal cortex at constant gain, and of hand-sectioned fixed oocytes
[1] = target: T1, VN-Rbm24b / VC-Rbm24b (BiFC fusion of Rbm24b) (Xenopus laevis)
[2] = target: VN-XveloSV / VC-XveloSV (BiFC fusion of XveloSV) (Xenopus laevis)
[3] = target: VN-XveloFL / VC-XveloFL (BiFC fusion of XveloFL) (Xenopus laevis)

Molecule	binding [1]	binding [2]	binding [3]
VN-Rbm42b / VC-Rbm42b (BiFC fusion of Rbm42b) (from UniProt A1L2K5)	binds	–	–
B1	–	binds	binds

These are yes or no findings as the source states them, for the method shown. Binding seen in cells or lysates may run through a third protein. A result given as binding can be weak or reduced; the word gives no strength. Sequences can lack the tags named with a protein.
